# Experimental data: PubChem BioAssay AID2685 (National Center for Advancing Translational Sciences (NCATS), 2010)
# In all, about 320,000 compounds went through this assay and about 2,100 (0.66%) were called active. This list was built around the results that the source calls inconclusive (neither active nor inactive); the mix of calls is not that of the screen. The call rests on the fitted dose curve; in most records, active means well fitted inhibition curve with a large enough effect in the signal ratio, with a control signal flat (not every such curve was filed as active); inconclusive means small, poorly fitted or top-dose-only effect, or effect the other way, or a change in a side signal; inactive means flat fitted curve, though single readings scatter; the % refers to the signal ratio. Potencies of inconclusive entries are doubtful fits and often do not repeat.
# Test: qHTS Assay for Lipid Storage Modulators in Drosophila S3 Cells
# Conditions: BODIPY lipid droplet fluorescence, 18-24 h, cells fed with added oleic acid; lipid storage change, negative = inhibition: at 46.1 µM (top of the series) unless noted
# Procedure, shortened: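 Drosophila S3 cells got compounds at several concentrations plus oleic acid (400 uM solution). Laser-scanning cytometry with 488 nm excitation read lipid droplets at 500-530 nm and cells at 575-640 nm. Percent activity was relative to 20 uM Triacsin C.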
# On the % scale 0 is the no-effect control and ±100 the full control effect; potency means the concentration at half of the fitted maximal effect.
SMILES,"lipid storage change, negative = inhibition",Potency
COc1cc(C2C=C(Nc3ccccc3)C(=O)N2c2ccccc2)ccc1O (configuration not stated),inconclusive: 9.2%,
C/C(N)=C(/C#N)C(=O)CSc1nnc(SCc2ccc(Cl)cc2)s1,,"inconclusive: 13 µM [activator, partial curve]"
Cc1ccccc1OCC(=O)OCC(=O)NCCc1ccccc1,inconclusive: -17.4%,
O=C(Nc1c(F)cc(F)cc1Br)c1cccnc1,inconclusive: 51.3%,
O=C1C(=O)N(CCN2CCOCC2)C(c2ccccc2)/C1=C(\O)c1ccc2c(c1)OCCO2 (configuration not stated),,"inconclusive: 29.1 µM [activator, single point]"
COc1ccc(C(=O)OCC(=O)N2CC(=O)Nc3ccccc32)cc1Br,inconclusive,
COc1cccc(NC(=O)Nc2ccc(C(C)(C)C)cc2)c1,,"inconclusive: 29.1 µM [falling, single point]"
Cn1c(CNC(=O)OC(C)(C)C)n[nH]c1=S,inconclusive: -8.22%,
Cc1ccc(CNC(=O)C(=O)NCC2CCCN2S(=O)(=O)c2cc(C)ccc2C)cc1 (configuration not stated),inconclusive: 0.463%,
Cc1ccc(C(=O)COC(=O)CCC(=O)Nc2cccc(Cl)c2)cc1[N+](=O)[O-],,"inconclusive: 29.1 µM [falling, single point]"
CCN(CC)C(=O)C(C)N(C#N)c1nc(NC(C)C)nc(NC(C)C)n1 (configuration not stated),,"inconclusive: 3.66 µM [rising, single point]"
CC(=O)c1c(C)oc2ccc(O)c(CN3CCOCC3)c12,,"inconclusive: 0.0046 µM [activator, full curve, poor fit]"
COC(=O)c1ccc[n+](CC(=O)Nc2ccc(OC(F)F)cc2)c1,inconclusive: -18.6%,
O=C(OCCCc1cc2ccccc2c(=O)o1)c1ccc(F)cc1,,"inconclusive: 5.17 µM [activator, single point]"
CC(c1ccc(F)cc1)n1c(Cn2ncc3ccccc3c2=O)n[nH]c1=S (configuration not stated),inconclusive: 0.825%,
CC(=O)Nc1ccc(NC(=O)C2CCCN2C(=O)Nc2ccc(F)cc2)cc1 (configuration not stated),,"inconclusive: 0.58 µM [activator, single point]"
Cc1cc(OCC(=O)Nc2ccc(CN3CCOCC3)cc2)ccc1Cl,inconclusive: -20.7%,
CCCS(=O)(=O)N1CCC(C(=O)N2CCN(Cc3ccccc3)CC2)CC1,inconclusive: 110%,
CCOP(=O)(OCC)C(C)(C)NC(=O)c1cc([N+](=O)[O-])cc([N+](=O)[O-])c1,inconclusive: 7.92%,
Cc1ccc(OCCC(=O)OCC(=O)NNC(=O)c2ccccc2)cc1,inconclusive,
Cc1cc2oc(=O)cc(CN(C)Cc3ccccc3Cl)c2cc1C,,"inconclusive: 0.116 µM [activator, single point]"
Cc1ccc(S(=O)(=O)NCc2ccccc2)cc1C(=O)N(C)Cc1ccc(F)cc1,inconclusive: -15.8%,
CCCCn1c(=NC(=O)c2ccco2)c(C(=O)OCC)cc2c(=O)n3ccccc3nc21,,"inconclusive: 3.66 µM [falling, full curve, poor fit]"
Cc1ccc(C(C)(C)C)cc1S(=O)(=O)N1CCC(C(=O)N2CCN(c3ccc(O)cc3)CC2)CC1,,active: 3.66 µM

# Reformatted tab-delimited: part of the list above
SMILES	lipid storage change, negative = inhibition	Potency
Cc1ccc(CNC(=O)C(=O)NCC2CCCN2S(=O)(=O)c2cc(C)ccc2C)cc1 (configuration not stated)	inconclusive: 0.463%	
Cc1ccc(S(=O)(=O)NCc2ccccc2)cc1C(=O)N(C)Cc1ccc(F)cc1	inconclusive: -15.8%	

# Next part.

SMILES,"lipid storage change, negative = inhibition",Potency
CCSc1ncc(Cl)c(C(=O)Nc2ccc(S(=O)(=O)Nc3onc(C)c3C)cc2)n1,,"inconclusive: 7.31 µM [falling, partial curve, poor fit]"
COc1ccccc1/C=C/C=C(\C#N)C(=O)NC(C)c1ccccc1 (configuration not stated),,"inconclusive: 0.146 µM [activator, full curve, poor fit]"
CN(Cc1cccs1)C(=O)c1cc(S(=O)(=O)N2CCOCC2)ccc1F,inconclusive: -22.3%,
COc1ccc(OCCN2CCN(S(=O)(=O)c3ccccc3C(F)(F)F)CC2)cc1,inconclusive: -17.1%,
CCN(C(=O)COC(=O)c1ccc(OC)c(S(=O)(=O)N(C)Cc2ccccc2)c1)C1CCS(=O)(=O)C1 (configuration not stated),inconclusive,
CCc1cccc2c(C(=O)COC(=O)c3cnc(C)cn3)c[nH]c12,inconclusive: 23.2%,
Cc1csc(N(C(=O)c2ccccc2F)c2ccccc2)n1,inconclusive: -28.3%,
Cc1ccc(-n2nc(C)c3c(C)c(CCC(=O)O)c(C)nc32)cc1C,inactive: -1.95%,
Cc1ccccc1NC(=S)N1CCCC1,inconclusive: -7.67%,
CCOC(=O)CNC(=O)CN1C(=O)CCSc2ccccc21,inconclusive: -3.07%,
Nc1c(Cl)ncnc1N1CCN(c2ncnc(Cl)c2N)CC1,inconclusive: 2.34%,
CC(=O)NC(CC(=O)OCC(=O)NCCc1ccccc1)c1ccccc1 (configuration not stated),inconclusive: -1.23%,
Cc1onc(-c2ccccc2)c1C(=O)OCc1nnc(-c2ccccc2)o1,inconclusive: -48.4%,
Cc1cc(C)c2c(=O)[nH]n(C3CCOC(C)(C)C3)c2n1 (configuration not stated),,"inconclusive: 29.1 µM [activator, single point]"
COc1cc(OC)cc(-c2c(-c3ccc(F)cc3)c3cc(-c4cnc(OC)nc4)ccc3n2C)c1,inconclusive: 46.7%,
Cc1c(NC(=O)COC(=O)C2CC3C=CC2C3)c(=O)n(-c2ccccc2)n1C (configuration not stated),inconclusive: 13.9%,
Cc1sc(NC(=O)CN2C(=O)NC3(CCCC3)C2=O)nc1-c1ccc(F)cc1,,"inconclusive: 2.91 µM [rising, partial curve, poor fit]"
O=C(Nc1ccccc1)c1nc[nH]c1C(=O)N1CCc2ccccc2C1,,"inconclusive: 1.16 µM [activator, partial curve]"
Cc1cccc(/C=C2/Sc3ccc(C(=O)N4CCOCC4)cc3NC2=O)c1,,"inconclusive: 29.1 µM [falling, single point]"
O=C(NNC(=O)c1cc(-c2ccncc2)nc2ccccc12)c1ccccc1F,,"inconclusive: 5.17 µM [rising, full curve]"
Cc1ccc(C(=O)NCCCN2CCOCC2)cc1Cl,,"inconclusive: 0.206 µM [activator, full curve]"
Nc1scc2c(C(=O)O)nn(-c3ccccc3)c(=O)c12,inconclusive: 4.05%,
Cc1cc(C(=O)NCC(c2ccco2)N(C)C)ccc1[N+](=O)[O-] (configuration not stated),inconclusive: 6.94%,
